Four substances from publication PMC2848011 can be followed below.

By UniProt entry, the sequences of proteins in these tests, tags left out.
UniProt P08047: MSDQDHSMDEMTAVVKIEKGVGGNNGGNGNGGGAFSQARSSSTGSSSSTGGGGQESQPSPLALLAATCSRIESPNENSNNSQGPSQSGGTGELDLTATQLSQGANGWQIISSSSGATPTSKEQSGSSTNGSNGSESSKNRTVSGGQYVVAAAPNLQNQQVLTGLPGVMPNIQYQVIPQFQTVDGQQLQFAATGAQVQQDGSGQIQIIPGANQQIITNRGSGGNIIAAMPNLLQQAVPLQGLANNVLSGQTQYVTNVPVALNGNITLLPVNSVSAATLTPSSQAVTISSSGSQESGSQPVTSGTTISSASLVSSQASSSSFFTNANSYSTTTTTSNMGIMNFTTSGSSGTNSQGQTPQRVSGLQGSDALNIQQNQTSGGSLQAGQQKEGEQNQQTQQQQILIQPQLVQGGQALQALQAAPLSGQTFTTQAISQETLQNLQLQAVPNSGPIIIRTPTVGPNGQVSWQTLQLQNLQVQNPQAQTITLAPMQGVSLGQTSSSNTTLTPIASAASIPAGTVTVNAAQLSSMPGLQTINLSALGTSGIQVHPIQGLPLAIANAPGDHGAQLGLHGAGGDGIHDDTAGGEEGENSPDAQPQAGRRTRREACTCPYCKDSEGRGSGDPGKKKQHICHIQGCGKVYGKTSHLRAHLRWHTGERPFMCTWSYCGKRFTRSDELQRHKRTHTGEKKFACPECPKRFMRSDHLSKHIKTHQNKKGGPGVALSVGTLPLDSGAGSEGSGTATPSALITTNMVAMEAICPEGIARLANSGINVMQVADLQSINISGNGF
UniProt Q02447: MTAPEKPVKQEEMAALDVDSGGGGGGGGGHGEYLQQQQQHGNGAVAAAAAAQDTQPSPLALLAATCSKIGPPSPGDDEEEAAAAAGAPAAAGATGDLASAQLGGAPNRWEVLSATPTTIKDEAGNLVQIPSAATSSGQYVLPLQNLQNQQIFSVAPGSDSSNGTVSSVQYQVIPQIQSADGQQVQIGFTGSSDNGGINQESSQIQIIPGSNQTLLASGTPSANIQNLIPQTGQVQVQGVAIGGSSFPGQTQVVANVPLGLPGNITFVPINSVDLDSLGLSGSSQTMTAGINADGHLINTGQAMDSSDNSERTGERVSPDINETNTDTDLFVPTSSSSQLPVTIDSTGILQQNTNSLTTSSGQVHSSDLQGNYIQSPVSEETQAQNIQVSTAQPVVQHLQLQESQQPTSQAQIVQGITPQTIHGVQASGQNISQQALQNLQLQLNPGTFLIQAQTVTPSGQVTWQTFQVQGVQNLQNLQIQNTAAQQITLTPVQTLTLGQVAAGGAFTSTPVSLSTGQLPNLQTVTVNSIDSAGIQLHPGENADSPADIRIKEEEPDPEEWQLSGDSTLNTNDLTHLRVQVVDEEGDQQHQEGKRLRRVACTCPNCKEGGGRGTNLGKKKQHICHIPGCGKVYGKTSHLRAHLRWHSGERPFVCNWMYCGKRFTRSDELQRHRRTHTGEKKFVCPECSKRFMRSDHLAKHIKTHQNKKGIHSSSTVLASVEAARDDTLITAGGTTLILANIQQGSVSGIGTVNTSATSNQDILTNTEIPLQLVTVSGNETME
UniProt P49715: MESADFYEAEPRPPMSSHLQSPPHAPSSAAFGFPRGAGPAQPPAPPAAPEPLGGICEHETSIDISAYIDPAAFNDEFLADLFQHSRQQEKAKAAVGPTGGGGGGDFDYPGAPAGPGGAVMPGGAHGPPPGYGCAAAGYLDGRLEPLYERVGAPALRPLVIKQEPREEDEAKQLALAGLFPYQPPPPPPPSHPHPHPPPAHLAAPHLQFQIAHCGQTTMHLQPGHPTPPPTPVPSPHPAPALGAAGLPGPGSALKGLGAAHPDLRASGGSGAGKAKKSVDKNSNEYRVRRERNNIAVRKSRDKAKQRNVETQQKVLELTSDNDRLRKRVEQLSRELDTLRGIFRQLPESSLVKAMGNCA
UniProt Q02446: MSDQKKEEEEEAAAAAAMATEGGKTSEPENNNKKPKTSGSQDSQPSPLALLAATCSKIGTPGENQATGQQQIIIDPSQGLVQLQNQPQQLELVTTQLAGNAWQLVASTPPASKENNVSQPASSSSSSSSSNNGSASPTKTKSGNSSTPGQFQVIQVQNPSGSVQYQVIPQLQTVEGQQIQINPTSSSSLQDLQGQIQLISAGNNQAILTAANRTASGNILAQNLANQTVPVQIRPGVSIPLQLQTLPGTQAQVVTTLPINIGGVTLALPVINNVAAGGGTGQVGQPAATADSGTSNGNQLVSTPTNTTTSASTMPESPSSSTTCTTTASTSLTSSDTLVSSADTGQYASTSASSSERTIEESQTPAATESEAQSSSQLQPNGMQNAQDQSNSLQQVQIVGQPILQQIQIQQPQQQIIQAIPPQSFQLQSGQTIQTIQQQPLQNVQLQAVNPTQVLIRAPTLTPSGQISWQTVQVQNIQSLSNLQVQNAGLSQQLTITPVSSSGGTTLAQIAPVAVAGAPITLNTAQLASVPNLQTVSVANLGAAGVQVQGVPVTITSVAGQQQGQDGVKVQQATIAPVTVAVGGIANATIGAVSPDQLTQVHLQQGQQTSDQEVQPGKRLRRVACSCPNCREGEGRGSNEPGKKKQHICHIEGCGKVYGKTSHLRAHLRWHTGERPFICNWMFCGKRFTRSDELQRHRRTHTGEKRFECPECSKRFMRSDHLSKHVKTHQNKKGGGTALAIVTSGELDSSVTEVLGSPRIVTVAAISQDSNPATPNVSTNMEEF
UniProt P37231: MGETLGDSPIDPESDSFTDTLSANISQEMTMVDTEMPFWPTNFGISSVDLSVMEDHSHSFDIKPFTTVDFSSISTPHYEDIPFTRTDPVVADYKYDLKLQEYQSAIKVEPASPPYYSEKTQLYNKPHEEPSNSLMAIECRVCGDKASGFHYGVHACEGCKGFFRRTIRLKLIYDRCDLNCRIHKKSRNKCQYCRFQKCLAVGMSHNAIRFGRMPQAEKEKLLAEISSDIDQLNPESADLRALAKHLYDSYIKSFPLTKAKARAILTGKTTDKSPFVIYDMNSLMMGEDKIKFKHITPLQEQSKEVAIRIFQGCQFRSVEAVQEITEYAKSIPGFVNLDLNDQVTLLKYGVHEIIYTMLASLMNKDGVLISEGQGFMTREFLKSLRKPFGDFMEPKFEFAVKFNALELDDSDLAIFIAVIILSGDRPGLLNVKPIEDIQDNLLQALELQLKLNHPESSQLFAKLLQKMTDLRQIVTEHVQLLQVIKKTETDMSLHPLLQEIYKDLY

Results are given in words; binding and its absence hold for the method and conditions named. For some assays here: In cells and extracts the contact can be indirect. Some entries that bind do so weakly or less than the wild type.

Experiment [1] deals with Specificity Protein 1 (Sp1) (human (endogenous in U937)) (UniProt P08047). Briefly: native gel or EMSA; super-shift EMSA: radio labeled hres Sp1 oligonucleotide (-276 to -295), 7.5 µg U937 nuclear extract (unstimulated; Sp1-Sp3 also with PMA stimulated extract), 2 µg of antibody to each factor; Sp1 binding buffer (10 mM Tris-Cl pH 7.5, 75 mM KCl, 0.1 mM EDTA, 2.5 mM MgCl2, 0.25 mM DTT, 10% glycerol), on ice.

Experiment [2] shares this target. Nature of the experiment: native gel or EMSA; super-shift EMSA: radio labeled hres Sp1 oligonucleotide, nuclear extracts from PMA stimulated U937 cells, anti-PPARγ antibody added. (A gel shift assay detects complexes by their altered migration in electrophoresis.)
Experiment [3] shares this target. Briefly: co-IP; whole cell extracts of PMA stimulated U937 cells in modified RIPA buffer; immune-precipitated with anti-Sp1 antibodies and blotted with PPARγ antibodies and vice versa; Protein G sepharose.
Experiment [4] shares this target. Nature of the experiment: co-IP; whole cell extracts of unstimulated U937 cells in modified RIPA buffer; immune-precipitated with anti-Sp1 antibodies and blotted with PPARγ antibodies and vice versa; Protein G sepharose, 4°C overnight.
Experiment [5] addresses Sp3 (human (endogenous in U937)) (UniProt Q02447). Briefly: native gel or EMSA; super-shift EMSA: radio labeled hres Sp1 oligonucleotide (-276 to -295), 7.5 µg U937 nuclear extract (unstimulated; Sp1-Sp3 also with PMA stimulated extract), 2 µg of antibody to each factor; Sp1 binding buffer (10 mM Tris-Cl pH 7.5, 75 mM KCl, 0.1 mM EDTA, 2.5 mM MgCl2, 0.25 mM DTT, 10% glycerol), on ice.

For “CCAAT enhancer binding protein α (C/EBP-α) (from UniProt P49715 1-358)”, the binding result in experiment [1] is “no binding”.

Sp3 (from UniProt Q02447 1-781): the binding result in experiment [1] is listed as “binds”.

For Sp4 (from UniProt Q02446 1-784), in experiment [1], the binding entry is on record as “no binding”.

“peroxisome proliferator activating receptor gamma (PPARγ) (from UniProt P37231 1-505)”: the binding entry is listed as “no binding (condition: PMA stimulated U937 cells)” in experiment [2]; “no binding (condition: PMA stimulated U937 cells)” in experiment [3]; “binds” in experiment [4]; “binds” in experiment [5]; “binds” in experiment [1].
